From PMC5607100
These are yes or no findings as the source states them, for the method shown. For some assays here: In cells and extracts the contact can be indirect. Some entries that bind do so weakly or less than the wild type. For some assays here: Sequences can lack the tags named with a protein.

T1: Ydl121c, split DHFR fusion (S. cerevisiae) (UniProt Q07541)
T1 sequence: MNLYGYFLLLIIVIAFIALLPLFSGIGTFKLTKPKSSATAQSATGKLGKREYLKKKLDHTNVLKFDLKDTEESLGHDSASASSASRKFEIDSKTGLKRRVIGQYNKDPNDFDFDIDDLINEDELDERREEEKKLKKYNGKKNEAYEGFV

B1: Pma1, plasma membrane H^+‐ATPase (protein, UniProt P05030 1-918)
chain: MTDTSSSSSSSSASSVSAHQPTQEKPAKTYDDAASESSDDDDIDALIEELQSNHGVDDEDSDNDGPVAAGEARPVPEEYLQTDPSYGLTSDEVLKRRKKYGLNQMADEKESLVVKFVMFFVGPIQFVMEAAAILAAGLSDWVDFGVICGLLMLNAGVGFVQEFQAGSIVDELKKTLANTAVVIRDGQLVEIPANEVVPGDILQLEDGTVIPTDGRIVTEDCFLQIDQSAITGESLAVDKHYGDQTFSSSTVKRGEGFMVVTATGDNTFVGRAAALVNKAAGGQGHFTEVLNGIGIILLVLVIATLLLVWTACFYRTNGIVRILRYTLGITIIGVPVGLPAVVTTTMAVGAAYLAKKQAIVQKLSAIESLAGVEILCSDKTGTLTKNKLSLHEPYTVEGVSPDDLMLTACLAASRKKKGLDAIDKAFLKSLKQYPKAKDALTKYKVLEFHPFDPVSKKVTAVVESPEGERIVCVKGAPLFVLKTVEEDHPIPEDVHENYENKVAELASRGFRALGVARKRGEGHWEILGVMPCMDPPRDDTAQTVSEARHLGLRVKMLTGDAVGIAKETCRQLGLGTNIYNAERLGLGGGGDMPGSELADFVENADGFAEVFPQHKYRVVEILQNRGYLVAMTGDGVNDAPSLKKADTGIAVEGATDAARSAADIVFLAPGLSAIIDALKTSRQIFHRMYSYVVYRIALSLHLEIFLGLWIAILDNSLDIDLIVFIAIFADVATLAIAYDNAPYSPKPVKWNLPRLWGMSIILGIVLAIGSWITLTTMFLPKGGIIQNFGAMNGIMFLQISLTENWLIFITRAAGPFWSSIPSWQLAGAVFAVDIIATMFTLFGWWSENWTDIVTVVRVWIWSIGIFCVLGGFYYEMSTSEAFDRLMNGKPMKEKKSTRSVEDFMAAMQRVSTQHEKET
B2: Ykl077w, split DHFR fusion (protein, UniProt P36081 23-392)
chain: ARQVVRPKEKMTTSEEVKPWLRTVYGSQKELVTPTVIAGVTFSEKPEETPNPLKPWVSLEHDGRPKTIKPEINKGRTKKGRPDYSTYFKTVSSHTYSYEELKAHNMGPNEVFVEEEYIDEDDTYVSLNPIVRCTPNLYFNKGLAKDIRSEPFCTPYENSRWKVDKTYFVTWYTRFFTDENSGKVADKVRVHLSYVKENPVEKGNYKRDIPATFFSSEWIDNDNGLMPVEVRDEWLQDQFDRRIVVSVQPIYISDEDFDPLQYGILLYITKGSKVFKPTKEQLALDDAGITNDQWYYVALSIPTVVVVFFVFMYFFLYVNGKNRDFTDVTRKALNKKRRVLGKFSEMKKFKNMKNHKYTELPSYKKTSKQN

Experiments:
[1] = biological target: Pma1, plasma membrane H^+‐ATPase (S. cerevisiae (endogenous in BY4741-based strains)) (UniProt P05030); assay: native gel or EMSA; blue native PAGE (3.5%-15%) of yeast microsomes solubilised in ComplexioLyte 48 buffer, 30 minutes at 4°C; Pma1 detected by blot; WT, Δydl121c and Δykl077w strains
[2] = biological target: T1, Ydl121c, split DHFR fusion (S. cerevisiae); assay: split reporter; in vivo split DiHydro Folate Reductase complementation (Split DHFR screen) in yeast, Ydl121c as query

| Binder | binding [1] | binding [2] |
| --- | --- | --- |
| B1 | binds |  |
| B2 |  | binds |
